Values from PubChem BioAssay AID1053208 (Peter MacCallum Cancer Centre, 2014)
Purpose: 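Find knock-downs that sensitise mouse osteosarcoma cells to doxorubicin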 (primary screen). System: mouse osteosarcoma cells, early-passage culture from an engineered mouse model of fibroblastic bone tumour. Reagent: siRNA pool against mouse genes, 40 nM. Duration: about 120 h (48 h before drug, then 72 h with drug). Treatment: doxorubicin 100 nM for 72 h, roughly 30-40% inhibitory dose. Detection: 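Luminescent ATP signal taken as viability with or without 100 nM doxorubicin for 72 h; mean of two wells set against non-targeting siRNA and turned into robust z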. Reading the numbers: viability z-score with doxorubicin and doxorubicin viability vs non-targeting: higher = more viable cells under doxorubicin; viability z-score without drug: higher = more viable cells with knock-down alone; z-score of drug to no-drug ratio: higher = less drug sensitisation by knock-down. Active means: 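Called active if knock-down leaves viability unchanged without drug (z within -2 to 2) but lowers it with doxorubicin (z at or under -2)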.
Shown is an unselected part of about 17,000 reagents. 788 of all reagents (4.7%) count as active. 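Calls rest on z-score classes alone; an extra cut-off of viability at most 70% of control was not applied to them.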 Reagents against one gene are numbered here. Some reagents were tested in more than one well and are listed for each. No sequences are given here.

Gene,reagent,combined z-score class,viability z-score with doxorubicin,viability z-score without drug,z-score of drug to no-drug ratio,doxorubicin viability vs non-targeting,call
Tril,1,no change with or without drug,-0.9,1.85,-1.91,0.86,inactive
Phkg1,1,no change with or without drug,0,0.51,-0.22,0.94,inactive
Ncf1,1,no change with or without drug,0.45,-0.17,0.67,0.98,inactive
Emb,1,high cell count without drug only,0.9,2.7,-0.67,1.02,inactive
Incenp,1,low cell count without drug only,-0.56,-2.02,1.01,0.89,inactive
Cldn14,1,no change with or without drug,0.34,-0.51,0.79,0.97,inactive
Igfbp5,1,no change with or without drug,-0.67,-0.84,0,0.88,inactive
Nab1,1,no change with or without drug,1.46,0.34,1.35,1.07,inactive
Hace1,1,no change with or without drug,1.35,0.84,0.9,1.06,inactive
Fstl5,1,no change with or without drug,0.34,0.84,-0.11,0.97,inactive
Slc8a1,1,no change with or without drug,0,-0.67,0.56,0.94,inactive
Slc8a1,2,no change with or without drug,1.24,1.85,0.11,1.05,inactive
Galntl5,1,no change with or without drug,-0.56,0,-0.45,0.89,inactive
Trpm5,1,no change with or without drug,-0.22,0.34,-0.34,0.92,inactive
Mta1,1,no change with or without drug,-0.22,-0.51,0.22,0.92,inactive
Agtr2,1,no change with or without drug,0.34,-0.51,0.79,0.97,inactive
Agtr2,1,no change with or without drug,0.11,-0.17,0.34,0.95,inactive
1810024B03Rik,1,no change with or without drug,1.8,1.18,1.12,1.1,inactive
Or10u3,1,no change with or without drug,0.56,0.51,0.34,0.99,inactive
Abcg8,1,no change with or without drug,0.45,0.84,0,0.98,inactive
Xrcc3,1,no change with or without drug,0,0.67,-0.34,0.94,inactive
Or5an10,1,low cell count with and without drug,-2.25,-2.53,-0.67,0.74,inactive
Adh4,1,no change with or without drug,1.12,1.85,0,1.04,inactive
Itch,1,no change with or without drug,-0.67,-0.84,0,0.88,inactive
Bpifb1,1,no change with or without drug,0.79,0.51,0.56,1.01,inactive
Cma2,1,no change with or without drug,-0.34,0.84,-0.79,0.91,inactive
Mrpl17,1,no change with or without drug,0.56,-1.18,1.57,0.99,inactive
Dnaaf6,1,no change with or without drug,0.67,0.84,0.22,1,inactive
Klf2,1,no change with or without drug,-0.67,-0.17,-0.45,0.88,inactive
Tecrl,1,no change with or without drug,0,-0.34,0.34,0.94,inactive
Dclre1b,1,high cell count with doxorubicin only,2.81,1.52,1.8,1.19,inactive
Zfp296,1,no change with or without drug,0,0.51,-0.22,0.94,inactive
Vmn1r206,1,no change with or without drug,-1.24,-0.67,-0.79,0.83,inactive
Or2d2,1,no change with or without drug,-1.35,-0.84,-0.79,0.82,inactive
Nkrf,1,no change with or without drug,0,1.52,-0.9,0.94,inactive
Papss2,1,no change with or without drug,0.56,-0.51,1.12,0.99,inactive
Ifna16,1,low cell count with doxorubicin only,-2.02,-0.51,-1.69,0.76,active
Sf3a3,1,no change with or without drug,-1.12,-0.51,-0.79,0.84,inactive
Sucla2,1,no change with or without drug,0.22,-0.51,0.67,0.96,inactive
Cyp2c23,1,no change with or without drug,0.67,-1.18,1.8,1,inactive
Slc7a9,1,no change with or without drug,1.01,1.18,0.34,1.03,inactive
Csnk1g1,1,no change with or without drug,-1.12,-1.01,-0.45,0.84,inactive
Nfyb,1,no change with or without drug,-0.45,-0.34,-0.11,0.9,inactive
Zfp566,1,no change with or without drug,-0.34,0.67,-0.67,0.91,inactive
Fut8,1,no change with or without drug,-1.24,-0.17,-1.12,0.83,inactive
Hgfac,1,no change with or without drug,-0.56,1.18,-1.24,0.89,inactive
Fut9,1,no change with or without drug,0.45,1.18,-0.22,0.98,inactive
Smagp,1,high cell count without drug only,1.12,2.02,-0.11,1.04,inactive
Or5p80,1,no change with or without drug,1.46,0.51,1.24,1.07,inactive
Rspry1,1,no change with or without drug,0.22,0,0.34,0.96,inactive
Tnfaip1,1,no change with or without drug,-0.22,-0.34,0.11,0.92,inactive
Btbd7,1,no change with or without drug,0,-0.84,0.67,0.94,inactive
Or2h1,1,no change with or without drug,-0.11,-0.67,0.45,0.93,inactive
Tbx5,1,no change with or without drug,-0.79,0.17,-0.79,0.87,inactive
Or8d6,1,no change with or without drug,-1.8,-0.17,-1.69,0.78,inactive
Praf2,1,no change with or without drug,-0.45,0.67,-0.79,0.9,inactive
Cxcl9,1,no change with or without drug,-0.45,-0.84,0.22,0.9,inactive
Igf1r,1,no change with or without drug,0.67,0.84,0.22,1,inactive
Ints1,1,low cell count without drug only,-1.57,-2.19,0,0.8,inactive
Or51m1,1,no change with or without drug,0.67,-0.67,1.35,1,inactive
Csde1,1,low cell count with doxorubicin only,-2.14,-0.51,-1.8,0.75,active
Rpl4,1,low cell count with and without drug,-6.41,-3.54,-5.4,0.37,inactive
Eln,1,no change with or without drug,0,0,0.11,0.94,inactive

Entries listed above called active (2):
Gene,reagent,combined z-score class,viability z-score with doxorubicin,viability z-score without drug,z-score of drug to no-drug ratio,doxorubicin viability vs non-targeting,call
Ifna16,1,low cell count with doxorubicin only,-2.02,-0.51,-1.69,0.76,active
Csde1,1,low cell count with doxorubicin only,-2.14,-0.51,-1.8,0.75,active
